# Results published in PubChem BioAssay AID504648 (National Center for Advancing Translational Sciences (NCATS), 2011).
# The campaign covered roughly 390,000 compounds. About 610 (0.16%) were called active. This list was built around the results that the source calls inconclusive (neither active nor inactive); the mix of calls is not that of the screen. The call rests on the fitted dose curve; in most records, active means well fitted inhibition curve with a large enough effect; inconclusive means small, poorly fitted or top-dose-only effect, or effect the other way, or another doubt; inactive means no such curve, though single readings can be large or run the other way. Potencies of inconclusive entries are doubtful fits and often do not repeat.
# Assay: Nrf2 qHTS screen for inhibitors: counterscreen for cytotoxicity
# Settings: A549 ARE-Fluc cells, CellTiter-Fluor viability, 18-24 h; activity change, negative = cytotoxicity: at 46 µM (top of the series)
# Procedure, shortened: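 Cytotoxicity counterscreen: CellTiter-Fluor fluorescence was measured in A549 ARE_Fluc cells after 18-24 h of compound exposure in a concentration series. The subsequent BugLite luminescent read reports ARE-luciferase activity.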
# On the % scale 0 is the no-effect control and ±100 the full control effect; potency means the concentration at half of the fitted maximal effect.
Structure (SMILES),Potency,"activity change, negative = cytotoxicity"
CC(=O)c1c(O)cc(=O)n(-c2ccccc2)c1-c1cccc2ccccc12,"inconclusive: 23.1 µM [falling, partial curve, poor fit]",
COc1ccc(-c2csc(N3CCN(c4cc(C)nc5ccccc45)CC3)n2)cc1OC,active: 20.6 µM,
Fc1ccccc1/C=C1\CCCC2=C1NC(=S)NC2c1ccccc1F (stereo unspecified),,inactive: -13.4%
CC1CC(C)CN(CCOc2cccc3ccccc23)C1 (stereo unspecified),"inconclusive: 20.6 µM [activator, partial curve, poor fit]",
N#C/C(=C/c1ccc(N2CCOCC2)o1)c1ccc(Cl)cc1,"inconclusive: 4.11 µM [activator, partial curve]",
COc1cccc(NC(=O)c2cccc(N3C(=O)C4C5C=CC(C5)C4C3=O)c2)c1 (stereo unspecified),"inconclusive: 16.4 µM [falling, partial curve, poor fit]",
Cc1cccnc1NC(=S)Nc1ccc(F)cc1F,,inactive: 6.76%
Cn1c(=O)n(CCCc2ccccc2)c(=O)c2c1nc1n2CCN1c1ccc(F)cc1,,inactive: 6.6%
COc1ccc(CCC(=O)N(C)CC(=O)Nc2ccc(Cl)c(C(F)(F)F)c2)cc1,"inconclusive: 32.6 µM [falling, partial curve, poor fit]",
CC(=O)Nc1ccc(NC(=O)C(=O)NCC(c2ccco2)N2CCc3ccccc3C2)cc1 (stereo unspecified),"inconclusive: 29.1 µM [falling, partial curve, poor fit]",
Oc1ccc(N=Cc2ccc(OCc3ccccc3)cc2)cc1,"inconclusive: 25.9 µM [falling, single point]",
O=C(c1ccc(OC2CCN(C/C=C/c3ccccc3)CC2)cc1)N1CCCCC1,"inconclusive: 20.6 µM [falling, single point]",
Cc1cc2c(cc(C(=O)OCC(=O)NCc3ccco3)n2C)s1,,inactive: -23.2%
O=C(NCCN1CCN(c2ccccc2)CC1)C1CCN(S(=O)(=O)c2cccc3nonc23)CC1,"inconclusive: 3.66 µM [activator, partial curve, poor fit]",
COc1ccc(C(=O)O/N=C(\N)Cc2ccc(Cl)c(Cl)c2)cc1OC,"inconclusive: 23.1 µM [falling, single point]",
c1ccc2c3c(cc(N4CCOCC4)c2c1)OC1(N2CCOCC2)CCCCC1O3 (stereo unspecified),,inactive: 2.08%
Cc1cccc(C2(c3cccc(C)c3)CC2C(=O)Nc2ccc([N+](=O)[O-])cc2O)c1 (stereo unspecified),"inconclusive: 29.1 µM [falling, single point]",
O=C(NC1CC1)C1CCN(C2CCN(C(=O)/C=C/c3ccc(F)cc3)CC2)CC1,,inactive: 3.04%
COc1ccc(CCNC(=O)CSc2n[nH]c(-c3ccccc3Cl)n2)cc1OC,"inconclusive: 6.51 µM [falling, partial curve, poor fit]",
COc1cc(C(=O)/C=C/c2cccnc2)c([N+](=O)[O-])cc1OC,"inconclusive: 23.1 µM [falling, single point]",
CC1(C)C(c2ccccc2)=NC(c2ccc(Br)cc2)N1O (stereo unspecified),,inactive: -2.67%

Structure (SMILES),Potency,"activity change, negative = cytotoxicity"
N#Cc1cc([N+](=O)[O-])ccc1Oc1cccc(/C=N/NC(=O)c2cccc(Cl)c2)c1,"inconclusive: 29.1 µM [falling, partial curve, poor fit]",
O=S1(=O)C=C(Sc2nnc(-c3ccccc3)o2)c2ccccc21,"inconclusive: 16.4 µM [falling, single point]",
CSc1nc2sc3c(c2c(=O)n1-c1ccccc1)CCC(C(C)(C)C)C3 (stereo unspecified),,inactive: 7.05%
C(=NN=C1c2ccccc2-c2ccccc21)c1c[nH]c2ccccc12,"inconclusive: 16.4 µM [falling, partial curve]",
COc1ccccc1OC(C)C(=O)Nc1nc(-c2ccc(S(=O)(=O)N3CCOCC3)cc2)cs1 (stereo unspecified),"inconclusive: 29.1 µM [activator, partial curve, poor fit]",
CCOc1ccc(NC(=O)c2cc(C3CC3)nc3c2cnn3C(C)C)cc1OC,,inactive: -1.08%
CCc1ccc2nc(N3C(=O)C(O)=C(C(=O)c4ccco4)C3c3cccs3)sc2c1 (stereo unspecified),"inconclusive: 20.6 µM [falling, partial curve, poor fit]",
O=C(NC1CCN(Cc2ccccc2)CC1)C12CC3CC(CC(C3)C1)C2,,inactive: 11.5%
CCCCCCCCCn1ccc(=N)cc1,"inconclusive: 8.2 µM [falling, partial curve, poor fit]",
Brc1ccc(-c2cnc(-c3cccs3)o2)cc1,,inactive: 8.7%
CCOc1ccccc1NC(=S)NCCCn1ccnc1,"inconclusive: 23.1 µM [falling, partial curve, poor fit]",
Cc1cccn2c(=O)c3cc(S(=O)(=O)c4ccccc4)c(=N)n(Cc4ccco4)c3nc12,"inconclusive: 8.2 µM [activator, partial curve, poor fit]",
C=C(C)CNC(=S)N/N=C/C1=CCC2CC1C2(C)C (stereo unspecified),"inconclusive: 8.2 µM [activator, partial curve, poor fit]",
CCO[C@H]1OC(C(=O)N2CCN(Cc3ccccc3)CC2)=C[C@@H](c2ccc(C(F)(F)F)cc2)[C@@H]1CCCO,"inconclusive: 29.1 µM [falling, single point]",
CCCCN(C)C(=O)Cn1c(SCC(=O)Nc2ccc(C)c(C)c2)nc2ccccc21,"inconclusive: 18.4 µM [falling, partial curve, poor fit]",
O=C(Cn1cnc2c(nnn2Cc2ccccc2F)c1=O)NCc1ccco1,"inconclusive: 18.4 µM [activator, partial curve, poor fit]",
N=C1S/C(=C\c2ccc(-c3ccccc3C(=O)O)o2)C(=O)N1c1ccc2c(c1)OCO2,"inconclusive: 23.1 µM [falling, partial curve, poor fit]",
COc1ccc(C2=C(CN(C)C)C(c3ccccc3)c3ccccc3O2)cc1 (stereo unspecified),"inconclusive: 29.1 µM [falling, single point]",
O=C1/C(=C/c2ccccc2)CN(C(=O)CCN2CCOCC2)C/C1=C\c1ccccc1,"inconclusive: 23.1 µM [falling, single point]",
COC(=O)C1=CN(C2CC2)C=C(C(=O)OC)C1c1ccc(C(=O)OC)cc1,"inconclusive: 14.6 µM [activator, single point]",

# In the list so far, two have an NH in an aromatic ring:
Structure (SMILES),Potency,"activity change, negative = cytotoxicity"
COc1ccc(CCNC(=O)CSc2n[nH]c(-c3ccccc3Cl)n2)cc1OC,"inconclusive: 6.51 µM [falling, partial curve, poor fit]",
C(=NN=C1c2ccccc2-c2ccccc21)c1c[nH]c2ccccc12,"inconclusive: 16.4 µM [falling, partial curve]",
